The values that follow come from publication PMC2727493.

This test deals with T1, FLAG-tagged PDK1 (UniProt O15530).
T1 sequence: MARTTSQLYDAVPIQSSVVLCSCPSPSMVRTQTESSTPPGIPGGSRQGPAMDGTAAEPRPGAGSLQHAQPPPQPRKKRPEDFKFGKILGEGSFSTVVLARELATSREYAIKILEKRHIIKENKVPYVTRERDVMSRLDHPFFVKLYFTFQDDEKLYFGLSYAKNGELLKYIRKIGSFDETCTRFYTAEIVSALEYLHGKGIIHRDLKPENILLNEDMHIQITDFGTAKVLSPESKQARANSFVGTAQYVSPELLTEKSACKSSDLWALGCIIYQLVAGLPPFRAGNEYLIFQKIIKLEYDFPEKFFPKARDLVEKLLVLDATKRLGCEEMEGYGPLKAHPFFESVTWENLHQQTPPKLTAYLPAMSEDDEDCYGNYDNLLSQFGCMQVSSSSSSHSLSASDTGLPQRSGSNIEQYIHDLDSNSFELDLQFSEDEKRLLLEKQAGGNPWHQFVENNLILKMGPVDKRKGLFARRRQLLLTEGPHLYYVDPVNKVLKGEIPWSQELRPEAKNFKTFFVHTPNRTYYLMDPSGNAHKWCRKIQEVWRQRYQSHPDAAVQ
As to the kind of experiment: co-IP; SkBr3 transfected with FLAG-PDK1; anti-FLAG IP, western blot for pAkt, EF1α and β-actin. For orientation: A western blot detects proteins with antibodies after separation by electrophoresis.

Results are given in words; binding and its absence hold for the method and conditions named. Binding seen in cells or lysates may run through a third protein. Binding can be weak; no strength is given. Sequences can lack the tags named with a protein.

Regarding “eukaryotic Elongation Factor 1 alpha (EF1α) (human (endogenous in SkBr3 and HCC1937))”, the binding entry is listed as “binds”.
